The experiment deals with T1, GST-PPARα (peroxisome proliferator-activated receptor α, NR1C1) (UniProt Q07869).
T1 sequence: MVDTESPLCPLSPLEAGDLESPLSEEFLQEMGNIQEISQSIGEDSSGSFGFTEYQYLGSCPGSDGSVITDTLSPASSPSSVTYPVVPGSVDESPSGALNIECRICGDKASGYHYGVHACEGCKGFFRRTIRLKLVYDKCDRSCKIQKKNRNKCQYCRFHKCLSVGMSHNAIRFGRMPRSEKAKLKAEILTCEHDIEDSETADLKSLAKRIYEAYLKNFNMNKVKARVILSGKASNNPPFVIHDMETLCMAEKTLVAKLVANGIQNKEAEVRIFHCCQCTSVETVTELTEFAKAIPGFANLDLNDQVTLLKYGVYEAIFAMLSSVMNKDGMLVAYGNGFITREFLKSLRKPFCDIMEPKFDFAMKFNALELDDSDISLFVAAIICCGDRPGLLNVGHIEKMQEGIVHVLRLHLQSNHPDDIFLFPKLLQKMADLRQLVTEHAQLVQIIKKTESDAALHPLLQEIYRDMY
The experiment in a line: pull-down; 2 μg GST-PPARα on glutathione beads with 10 μl in vitro translated [35S]-methionine labeled GRα or p65, with increasing amounts of non-labeled GRα, labeled GRα or labeled p65; 200 μl 20 mM Tris-HCl pH 8, 300 mM NaCl, 6 mM MgCl2, 8% glycerol, 0.05% Nonidet P-40, 0.1% dithiothreitol; 2 h at 4°C; washes at 500 mM NaCl; autoradiography; only the target purified.

Amino acid sequences for entries named in this document (tags omitted).
UniProt Q04206: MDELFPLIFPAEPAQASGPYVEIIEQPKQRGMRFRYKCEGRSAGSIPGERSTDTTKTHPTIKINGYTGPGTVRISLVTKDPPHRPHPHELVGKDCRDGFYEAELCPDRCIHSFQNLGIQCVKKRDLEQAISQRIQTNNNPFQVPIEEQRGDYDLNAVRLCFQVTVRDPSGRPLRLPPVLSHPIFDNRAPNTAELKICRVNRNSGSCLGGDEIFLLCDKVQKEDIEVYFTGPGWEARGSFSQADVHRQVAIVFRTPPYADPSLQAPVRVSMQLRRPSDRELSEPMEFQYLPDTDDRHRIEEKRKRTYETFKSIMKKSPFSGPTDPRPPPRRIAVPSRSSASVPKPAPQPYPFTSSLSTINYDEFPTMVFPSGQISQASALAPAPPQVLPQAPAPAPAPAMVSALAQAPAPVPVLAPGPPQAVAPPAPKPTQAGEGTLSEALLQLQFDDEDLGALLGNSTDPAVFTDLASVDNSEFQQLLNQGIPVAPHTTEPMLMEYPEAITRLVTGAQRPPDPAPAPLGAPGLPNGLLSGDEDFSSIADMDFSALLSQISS
UniProt P04150: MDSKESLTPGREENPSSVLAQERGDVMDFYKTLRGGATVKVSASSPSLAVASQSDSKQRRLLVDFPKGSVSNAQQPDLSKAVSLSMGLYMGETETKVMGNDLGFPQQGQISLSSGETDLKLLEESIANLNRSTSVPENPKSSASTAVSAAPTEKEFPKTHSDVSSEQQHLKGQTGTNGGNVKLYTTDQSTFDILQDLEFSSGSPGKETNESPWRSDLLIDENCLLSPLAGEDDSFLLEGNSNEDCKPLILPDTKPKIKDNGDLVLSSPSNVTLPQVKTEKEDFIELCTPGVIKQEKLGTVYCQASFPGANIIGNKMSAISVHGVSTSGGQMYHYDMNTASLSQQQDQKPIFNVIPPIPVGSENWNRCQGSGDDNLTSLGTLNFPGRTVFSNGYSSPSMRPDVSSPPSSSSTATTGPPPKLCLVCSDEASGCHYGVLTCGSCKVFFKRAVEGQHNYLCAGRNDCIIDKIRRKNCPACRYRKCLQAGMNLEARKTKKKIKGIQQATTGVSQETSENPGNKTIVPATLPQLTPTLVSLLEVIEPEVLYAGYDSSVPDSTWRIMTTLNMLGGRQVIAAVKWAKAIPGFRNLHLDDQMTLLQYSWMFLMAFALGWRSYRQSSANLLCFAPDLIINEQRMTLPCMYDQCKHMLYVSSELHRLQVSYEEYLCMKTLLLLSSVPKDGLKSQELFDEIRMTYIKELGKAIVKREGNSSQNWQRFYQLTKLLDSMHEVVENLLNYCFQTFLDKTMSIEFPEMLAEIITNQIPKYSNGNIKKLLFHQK

Results are given in words; binding and its absence hold for the method and conditions named. Binding seen in cells or lysates may run through a third protein. Some entries that bind do so weakly or less than the wild type. Tags and fused reporters may be left off the sequences shown.

Turning to “p65 subunit of NF-κB, in vitro translated (from UniProt Q04206 1-551)”, the binding result is on record as “binds”.
Take “GRα (glucocorticoid receptor α, NR3C1), in vitro translated (from UniProt P04150 1-777)”: the binding entry was “binds”.

For the origin of these results see PMC6695567.
